# The list shows a part of the results. Shown are side measurements of this screen, not its main read-out; they come without a call. Most of these compounds were active or inconclusive in the main read-out, so they are no random draw. The note in brackets gives the kind of curve behind each potency; many fits are weak.
# Test: qHTS Assay to Find Inhibitors of Chronic Active B-Cell Receptor Signaling
# Conditions: ABC-DLBCL IkBa-CBG/CBR reporter, luminescence ratio (green luciferase fused to IkBa over red control in TMD8 lymphoma cells), 4 h
# Procedure, shortened: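 Doxycycline induced both beetle luciferases in TMD8 lymphoma cells; IKK-driven degradation limits the IkappaBalpha-fused green signal, while red luminescence normalises for cell number and nonspecific effects. Compounds tested up to 46 uM, 4 hrs.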
# [1] = measured here: CBR red luminescence, cell number
# [2] = measured here: IkBa-CBG green luminescence
Compound,AC50 [1],AC50 [2]
CCc1cccc(C)c1NC(=O)c1cc(=O)[nH]c2ccc(S(=O)(=O)N3CCOCC3)cc12,"5.8 µM [rising, full curve]",–
Cn1ncc(Cl)c1C(=O)Nc1ccc2c(c1)CCC2,"3.55 µM [rising, single point]",–
Cc1cc(C=O)c(C)n1-c1ccc(N2CCCCC2)c([N+](=O)[O-])c1,"20 µM [falling, partial curve, poor fit]",–
COCC1CCCCN1Cc1cn(-c2ccccc2)nc1-c1ccc2c(c1)OCO2 (stereo not given),"4.47 µM [rising, full curve, poor fit]",–
CCOc1ccccc1/C=N/Nc1ccnc(=O)[nH]1,"7.94 µM [falling, full curve, poor fit]",–
Cc1c(C(=O)Nc2cccc(F)c2)cnn1-c1ccccc1,"17.8 µM [falling, single point]",–
CCOc1ccc(Nc2nc(N)nc(CN(C)C3CCCCC3)n2)cc1,"16.4 µM [rising, single point]",–
Cc1cc(NC(=O)CSCC(=O)N(c2cccc(Cl)c2)C(C(=O)NC2CCCCC2)c2ccc(O)c(O)c2)no1 (stereo not given),"18.4 µM [falling, single point]",–
COc1ccc(-c2ccc(=O)n(CC(=O)Nc3ccccc3C(F)(F)F)n2)cc1,"35.5 µM [rising, single point]",–
COc1cccc(/C=N/Nc2ncnc(Cl)c2N)c1O,"18.4 µM [rising, single point]",–
Cc1cccc(NC(=O)[C@H](Cc2ccccc2)NC(=O)[C@@H]2Cc3ccccc3CN2)c1,"2.51 µM [falling, single point]",–
CC1=CCC2C(=O)N(c3cccc(C(=O)Nc4ccc(Cl)cc4)c3)C(=O)C2C1 (stereo not given),"11.2 µM [falling, partial curve, poor fit]",–
Cc1cc(=O)[nH]c(N=N/C(=N/Nc2ccccc2C)c2ccccc2)n1,"0.0731 µM [rising, full curve, poor fit]",–
CCOC(=O)c1nnc(-c2ccc(C)cc2)nc1Oc1ccc(Cl)cc1Cl,"12.6 µM [falling, partial curve, poor fit]",–
O=C(CSc1ncnc2c1nnn2-c1ccc(F)cc1)NCc1ccco1,"16.4 µM [falling, partial curve]",–
Cc1c(F)cccc1NS(=O)(=O)c1ccc2c(c1)c(=O)n(C)c(=O)n2C,"12.6 µM [falling, partial curve]",–
Cc1ccc(S(=O)(=O)N2CCN(S(C)(=O)=O)C2c2ccccc2)cc1 (stereo not given),"18.4 µM [falling, partial curve, poor fit]",–
Cc1ccc(C(=O)OCC(=O)NC2CCCC(C)C2C)cc1S(=O)(=O)N1CCCCC1 (stereo not given),"14.6 µM [rising, partial curve]",–
O=C(c1cc(-c2cccnc2)nc2ccccc12)N1CCCc2ccccc21,"2.06 µM [rising, partial curve]",–
COc1ccccc1CC(=O)Nc1ccc2c(c1)C(=O)NC2=O,"7.94 µM [falling, partial curve]",–
C[C@H]1C=C(C(=O)NCc2nc3ccccc3[nH]2)O[C@@H](OCc2ccc(CO)cc2)C1,"3.16 µM [falling, full curve]",–

# In the list so far, three contain an aryl methoxy group.
Compound,AC50 [1],AC50 [2]
COc1ccc(-c2ccc(=O)n(CC(=O)Nc3ccccc3C(F)(F)F)n2)cc1,"35.5 µM [rising, single point]",–
COc1cccc(/C=N/Nc2ncnc(Cl)c2N)c1O,"18.4 µM [rising, single point]",–
COc1ccccc1CC(=O)Nc1ccc2c(c1)C(=O)NC2=O,"7.94 µM [falling, partial curve]",–

# Additional compounds:

Compound,AC50 [1],AC50 [2]
CCOC(=O)CSc1ncnc2c1cnn2-c1ccc(C)cc1,"20.6 µM [falling, single point]",–
COc1ccc(-c2noc(CCC(=O)NCCc3cccc(C)c3)n2)cc1,"0.794 µM [rising, full curve, poor fit]",–
COC(=O)c1ccccc1NC(=O)/C=C/c1cc(OC)c(OC)c(OC)c1,–,"20.6 µM [falling, single point]"
CCCC(CCC(=O)Nc1ccc(S(N)(=O)=O)cc1)C(=O)O (stereo not given),"20.6 µM [falling, single point]",–
Cc1nc(C)c(C(=O)Nc2ncc([N+](=O)[O-])s2)o1,"8.91 µM [falling, partial curve]",–
O=C(NCCc1ccccc1)c1ccc2nc(N3CCOCC3)sc2c1,"0.562 µM [rising, full curve, poor fit]",–
CCOc1ccc(OCC)c(NC(=O)C2CCCN2S(=O)(=O)c2cccc3cccnc23)c1 (stereo not given),"2.31 µM [rising, single point]",–
COC(=O)C(Oc1ccc2c(-c3ccc(OC)cc3)cc(=O)oc2c1)c1ccccc1 (stereo not given),"9.2 µM [falling, partial curve]",–
Cc1ccnc(N(C(=O)c2cccs2)C(=O)c2cccs2)c1,"20.6 µM [falling, single point]",–
CCOc1ccccc1N(CC(=O)NCc1ccccc1)C(=O)CCC(=O)Nc1cc(C)ccn1,"7.94 µM [falling, partial curve]",–
CCCCn1c(=O)n(CC(O)c2ccccc2)c(=O)c2c1ncn2C1CCCC1 (stereo not given),"12.6 µM [falling, partial curve, poor fit]",–
O=C(Nc1ccc(Oc2cccnc2)cc1)c1ccccc1Cl,"9.2 µM [falling, partial curve]",–
O=C(CSc1nc2ccccc2s1)NNC(=S)Nc1ccccc1,"11.6 µM [rising, partial curve, poor fit]",–
CC(=O)Nc1ccc(NC(=O)COc2ccc(Cl)cc2Cl)cc1,"10 µM [rising, partial curve, poor fit]",–
C/C(=N\NC(=O)c1c(Cl)c(C)nn1C)c1cccc(NC(=O)C2CCCC2)c1,"2.24 µM [falling, partial curve]",–
CCOC(=O)Cc1csc(SCc2nc3sc4c(c3c(=O)[nH]2)CCC4)n1,"14.6 µM [falling, partial curve]",–
COc1ccc(CNC(=O)CSCc2ccc(C)cc2)c(OC)c1,"1 µM [rising, full curve, poor fit]",–
O=C(NCC(c1ccc2c(c1)OCO2)N1CCOCC1)C(=O)Nc1ccc(Cl)cc1 (stereo not given),"1.58 µM [falling, full curve, poor fit]",–
CC(=O)CC(c1ccccc1)c1c(O)c2ccccc2oc1=O (stereo not given),"2.24 µM [rising, full curve, poor fit]",–
CC1=C/C(=C(\c2cc(C)c(O)c(Br)c2)c2ccccc2S(=O)(=O)O)C=C(Br)C1=O,"12.6 µM [falling, partial curve]",–
N/C(=N\OC(=O)c1ccc(Cl)cc1)c1[nH]ncc1Br,"8.91 µM [falling, partial curve, poor fit]",–

Compound,AC50 [1],AC50 [2]
CCC(NC(=O)CCc1c(C)c2cc3c4c(oc3cc2oc1=O)CCCC4)C(=O)O (stereo not given),"15.8 µM [rising, partial curve]","12.6 µM [falling, partial curve]"
COc1ccc(/C=C/C(=O)NC(=S)NCc2ccccc2)cc1OC,"35.5 µM [rising, single point]",–
Cc1nc2nc(NC(=O)c3ccco3)nn2c(C)c1Cl,"3.55 µM [falling, partial curve]",–
COc1ccc(NC(=O)CN2CCC3(O)CCCCC3C2c2cc(OC)ccc2OC)cc1 (stereo not given),"35.5 µM [falling, single point]","25.1 µM [rising, partial curve, poor fit]"
COC(=O)c1ccc2c(=O)n(Cc3ccco3)c(SCC(=O)Nc3ccc(C)c(Cl)c3)nc2c1,"4.11 µM [falling, partial curve, poor fit]",–
CC(Sc1nc(N)cc(N)n1)C(=O)Nc1ccc(N2CCOCC2)cc1 (stereo not given),"0.326 µM [rising, full curve]",–
COc1cc2c(cc1OC)CN(CC(=O)Nc1ccc(C)cc1)CC2,"2.91 µM [rising, partial curve, poor fit]",–
COc1ccc(-c2nnc(SCC(=O)NCc3cccs3)n2C(C)C)cc1,"16.4 µM [rising, partial curve, poor fit]",–
COc1ccc(-c2nn(-c3ccccc3)cc2/C=C2/SC(=S)N(CCC(=O)O)C2=O)cc1,"14.1 µM [rising, single point]",–
Cn1c2ccsc2c2ncn(Cc3ccccc3F)c(=O)c21,"10.3 µM [rising, partial curve, poor fit]",–
Cc1cccc(C)c1Nc1c(-c2ccccn2)nc2ccccn12,"12.6 µM [falling, partial curve, poor fit]",–
Cc1cccc(C)c1NS(=O)(=O)c1ccc(-c2cnc(C3CC3)o2)cc1,"1.12 µM [rising, full curve, poor fit]","1.26 µM [falling, full curve]"
COc1ccc(OC)c(-c2cc(C(=O)Nc3cccc(Cl)c3)no2)c1,"0.282 µM [falling, full curve, poor fit]",–
O=C(NC(NC(=O)c1ccccc1)C(=O)c1ccccc1)c1ccccc1,"0.0411 µM [rising, full curve, poor fit]",–
O=C(N/N=C/c1ccccc1)c1[nH]c2ccc(Br)cc2c1-c1ccccc1,"1.64 µM [rising, full curve]","2.59 µM [falling, full curve]"
Cc1ccc(CNC(=O)C2CCC(=O)N(Cc3ccc(Cl)cc3)C2)cc1F (stereo not given),"14.1 µM [falling, single point]",–
O=C(Nc1ccc2c(c1)OCCO2)c1ccc(Cl)c(S(=O)(=O)N2CCCCC2)c1,"23.1 µM [falling, single point]",–
O=C(CCCn1c(=O)[nH]c2cc(Cl)ccc2c1=O)NCCCN1CCN(c2ccc(F)cc2)CC1,"4.47 µM [falling, full curve]",–
COc1cccc(/C=C2/Oc3ccccc3N(CC(=O)NCC3CCCO3)C2=O)c1 (stereo not given),"5.01 µM [rising, full curve, poor fit]",–

# — PubChem BioAssay AID493014 (National Center for Advancing Translational Sciences (NCATS), 2011)
